Reference: patent US20260217821A1 (SPH BIOTHERAPEUTICS SHANGHAI, published 2026)
No constants are given. Whether binding was seen depends on the method and setting. Some binding calls cover weakened binding; strength is not graded here.

By UniProt entry, the sequences of proteins in these tests, tags left out. Residues count along the entry.
UniProt Q01973, residues 30-403: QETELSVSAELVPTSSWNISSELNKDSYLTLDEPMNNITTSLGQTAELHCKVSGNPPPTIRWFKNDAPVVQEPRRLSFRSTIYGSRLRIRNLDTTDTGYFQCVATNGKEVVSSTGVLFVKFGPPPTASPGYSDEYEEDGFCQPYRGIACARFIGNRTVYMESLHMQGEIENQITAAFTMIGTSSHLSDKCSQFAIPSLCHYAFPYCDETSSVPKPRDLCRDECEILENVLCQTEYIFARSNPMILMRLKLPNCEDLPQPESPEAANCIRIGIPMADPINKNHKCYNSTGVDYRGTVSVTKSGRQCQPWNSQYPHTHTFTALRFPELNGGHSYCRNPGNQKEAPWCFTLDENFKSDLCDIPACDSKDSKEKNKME

Tests used:
recombinant ROR1 protein [1] = target: T1, recombinant ROR1 protein (UniProt Q01973 30-403, limits assumed); assay: ELISA with periplasmic extracts, OD450 (FIG. 6A)
T1 construct: also called his-tagged ROR1; not shown: his tag

recombinant ROR1 protein [2] = target: T1, recombinant ROR1 protein; assay: specificity ELISA at 3 µg/ml, HRP anti-HA detection (FIG. 9A)
recombinant ROR1 protein [3] = target: T1, recombinant ROR1 protein; assay: ELISA with purified protein, dilution series (FIG. 8A)
recombinant ROR1 protein [4] = target: T1, recombinant ROR1 protein; assay: specificity ELISA at 3 µg/ml, HRP anti-HA detection (FIGS. 9A-9B)
recombinant ROR1 protein [5] = target: T1, recombinant ROR1 protein; assay: ELISA with periplasmic extracts, OD450 (FIGS. 6A-6B)
recombinant ROR1 protein [6] = target: T1, recombinant ROR1 protein; assay: ELISA with purified protein, dilution series (FIGS. 8A-8B)
recombinant ROR1 protein [7] = target: T1, recombinant ROR1 protein; assay: specificity ELISA at 3 µg/ml, HRP anti-HA detection (FIG. 9B)
recombinant ROR1 protein [8] = target: T1, recombinant ROR1 protein; assay: ELISA with purified protein, dilution series (FIG. 8B)
recombinant ROR1 protein [9] = target: T1, recombinant ROR1 protein; assay: ELISA with periplasmic extracts, OD450 (FIG. 6B)
PE-labeled ROR1 protein [10] = target: PE-labeled ROR1 protein (UniProt Q01973); assay: flow cytometry of CAR-transduced T cells stained with ROR1 protein (FIG. 15)
PE-labeled ROR1 protein [11] = target: PE-labeled ROR1 protein (UniProt Q01973); assay: flow cytometry of CAR-transduced PBMCs stained with PE-labeled ROR1 protein (FIG. 15)

B1: 5-26 (VHH)
VHH: QVQLQESGGGLVQPGGSLRLSCAASGFTLDLYAIGWFRQAPGKERERVSCISSGGSTNYAESVKGRFTISRDNGKNTVYLQMNSLKPEDTAVYYCVRSVPSCGSYYFPPRNMNYWGKGTQVTVSS
notes: Alpaca VHH from the phage library; not shown: one his tag and one HA tag at the C-terminus
binding (recombinant ROR1 protein [1]): binds
binding (recombinant ROR1 protein [2]): binds
binding (recombinant ROR1 protein [3]): binds

B2: 5-09 (VHH)
VHH: QVQLQESGGGLVQPGGSLRLSCAASGFTLDDYAIGWFRQAPGKERERISCISSGGNTNYADSVKGRFTLSRDNAKNTVYLQMYSLKPEDTAVYYCTASIPSCASYYFPPRNMDYWGKGTQVTVSS
notes: also called 5-9; not shown: one his tag and one HA tag at the C-terminus
binding (recombinant ROR1 protein [4]): binds
binding (recombinant ROR1 protein [5]): binds
binding (recombinant ROR1 protein [6]): binds

B3: 5-95 (VHH)
VHH: QVQLQESGGGLVQPGGSLRLSCAASGFTFSTYSMTWVRQAPGKGLEWVSDINSGGSVAYYTDSVKGRFTASRDNAKNTLYLQMNSLKPEDTAVYYCYEGGYHGGSPRGHGTQVTVSS
notes: not shown: one his tag and one HA tag at the C-terminus
binding (recombinant ROR1 protein [4]): binds
binding (recombinant ROR1 protein [5]): binds
binding (recombinant ROR1 protein [6]): binds

B4: 4-92 (VHH)
VHH: QVQLQESGGGLVQPGGSLRLSCAASGFAFSSRAMSWVRQAPGKGLEWVSDINYDGAWTYYADSVKGRFTISRDNAKNTLYLQMNSLKPEDTAVYFCTDPWSIDGWGQGTQVTVSS
notes: as for B1
binding (recombinant ROR1 protein [7]): binds
binding (recombinant ROR1 protein [8]): binds
binding (recombinant ROR1 protein [9]): binds

B5: hu5-26 ROR1 VHH CAR (other)
chain: QVQLVESGGGLVQPGGSLRLSCAASGFTLDLYAIGWFRQAPGKERGLVSCISSGGSTNYAESVKGRFTISRDNSKNTVYLQMNSLRSEDTAVYYCVRSVPSCGSYYFPPRNMNYWGQGTLVTVSSIEVMYPPPYLDNEKSNGTIIHVKGKHLCPSPLFPGPSKPFWVLVVVGGVLACYSLLVTVAFIIFWVKRGRKKLLYIFKQPFMRPVQTTQEEDGCSCRFPEEEEGGCELRVKFSRSADAPAYKQGQNQLYNELNLGRREEYDVLDKRRGRDPEMGGKPRRKNPQEGLYNELQKDKMAEAYSEIGMKGERRRGKGHDGLYQGLSTATKDTYDALHMQALPPR
binding (PE-labeled ROR1 protein [10]): binds
binding (PE-labeled ROR1 protein [11]): binds
